Results are given in words; binding and its absence hold for the method and conditions named. In cells and extracts the contact can be indirect. Some entries that bind do so weakly or less than the wild type.
T1: Regulatory factor X-box 1 (RFX1) (human (endogenous in CD4+ T cells)) (UniProt P22670)
T1 sequence: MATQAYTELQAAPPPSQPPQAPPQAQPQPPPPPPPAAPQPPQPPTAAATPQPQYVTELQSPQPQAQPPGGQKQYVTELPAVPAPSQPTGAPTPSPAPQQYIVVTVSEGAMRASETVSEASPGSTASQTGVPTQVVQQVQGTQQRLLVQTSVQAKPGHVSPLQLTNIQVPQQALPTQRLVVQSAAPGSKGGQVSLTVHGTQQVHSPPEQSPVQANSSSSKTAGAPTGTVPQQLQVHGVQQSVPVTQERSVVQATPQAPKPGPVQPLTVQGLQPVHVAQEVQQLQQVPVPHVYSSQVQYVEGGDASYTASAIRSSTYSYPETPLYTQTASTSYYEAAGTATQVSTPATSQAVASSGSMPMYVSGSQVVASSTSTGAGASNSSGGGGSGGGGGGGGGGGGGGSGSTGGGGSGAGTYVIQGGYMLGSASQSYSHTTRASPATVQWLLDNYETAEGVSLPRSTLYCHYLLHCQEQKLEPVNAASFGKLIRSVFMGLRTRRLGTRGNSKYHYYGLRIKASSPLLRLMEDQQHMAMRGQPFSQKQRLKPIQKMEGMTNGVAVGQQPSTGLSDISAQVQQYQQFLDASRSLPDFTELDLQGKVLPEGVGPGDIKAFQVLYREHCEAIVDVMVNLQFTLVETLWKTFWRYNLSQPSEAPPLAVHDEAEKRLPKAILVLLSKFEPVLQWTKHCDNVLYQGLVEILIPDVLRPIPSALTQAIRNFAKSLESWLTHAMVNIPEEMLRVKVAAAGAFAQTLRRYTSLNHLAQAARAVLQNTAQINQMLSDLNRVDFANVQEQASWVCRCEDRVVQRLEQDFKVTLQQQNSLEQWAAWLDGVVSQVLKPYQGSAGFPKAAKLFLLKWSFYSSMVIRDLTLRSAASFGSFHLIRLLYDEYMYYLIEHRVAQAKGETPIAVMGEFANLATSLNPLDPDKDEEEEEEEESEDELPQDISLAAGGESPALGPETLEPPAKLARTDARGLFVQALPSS

By UniProt entry, the sequences of proteins in these tests, tags left out.
UniProt Q96KQ7: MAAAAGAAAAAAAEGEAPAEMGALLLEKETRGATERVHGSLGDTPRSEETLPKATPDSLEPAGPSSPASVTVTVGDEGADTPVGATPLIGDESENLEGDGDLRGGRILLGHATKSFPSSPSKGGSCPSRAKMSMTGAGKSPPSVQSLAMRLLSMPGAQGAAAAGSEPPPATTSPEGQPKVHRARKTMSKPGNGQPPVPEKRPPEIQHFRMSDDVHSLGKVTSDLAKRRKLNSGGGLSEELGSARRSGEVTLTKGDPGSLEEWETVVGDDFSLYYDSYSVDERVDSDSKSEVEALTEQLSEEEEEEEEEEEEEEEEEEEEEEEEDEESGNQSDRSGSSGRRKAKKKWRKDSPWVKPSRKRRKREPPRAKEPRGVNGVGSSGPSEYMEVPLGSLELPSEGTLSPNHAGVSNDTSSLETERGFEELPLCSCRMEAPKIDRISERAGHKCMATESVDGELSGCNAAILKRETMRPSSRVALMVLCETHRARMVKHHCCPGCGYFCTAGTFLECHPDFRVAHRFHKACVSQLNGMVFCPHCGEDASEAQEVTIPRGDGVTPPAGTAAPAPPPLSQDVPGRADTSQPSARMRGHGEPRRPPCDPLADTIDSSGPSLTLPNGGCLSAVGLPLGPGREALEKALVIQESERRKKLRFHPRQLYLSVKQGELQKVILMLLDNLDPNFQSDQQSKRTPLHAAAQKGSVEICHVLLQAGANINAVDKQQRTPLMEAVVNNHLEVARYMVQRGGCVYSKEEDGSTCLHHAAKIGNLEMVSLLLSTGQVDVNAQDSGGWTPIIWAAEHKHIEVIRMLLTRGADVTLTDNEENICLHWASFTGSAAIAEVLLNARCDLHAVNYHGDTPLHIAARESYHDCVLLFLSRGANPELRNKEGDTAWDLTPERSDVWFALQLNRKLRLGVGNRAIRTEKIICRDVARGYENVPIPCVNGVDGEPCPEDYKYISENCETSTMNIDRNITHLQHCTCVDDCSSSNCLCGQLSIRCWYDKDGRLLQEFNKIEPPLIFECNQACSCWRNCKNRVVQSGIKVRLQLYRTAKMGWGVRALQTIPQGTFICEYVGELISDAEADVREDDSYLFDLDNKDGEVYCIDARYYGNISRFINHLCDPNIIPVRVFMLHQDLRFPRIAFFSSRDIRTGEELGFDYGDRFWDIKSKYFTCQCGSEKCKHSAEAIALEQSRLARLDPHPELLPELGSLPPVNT


Molecular target: T1, Regulatory factor X-box 1 (RFX1) (human (endogenous in CD4+ T cells))
Assay: co-IP; whole CD4+ T cell lysates in RIPA buffer incubated overnight with RFX1 antibody, protein A/G PLUS-agarose beads, Western blot; lysates of healthy CD4+ T cells and of Jurkat cells

| binding | Molecule |
| --- | --- |
| no binding | G9a (from UniProt Q96KQ7 1-1210) (enzyme) |
| binds | suppressor of variegation 3-9 (Drosophila) homolog 1 (SUV39H1) (enzyme, UniProt O43463 1-412) MAENLKGCSVCCKSSWNQLQDLCRLAKLSCPALGISKRNLYDFEVEYLCDYKKIREQEYYLVKWRGYPDSESTWEPRQNLKCVRILKQFHKDLERELLRRHHRSKTPRHLDPSLANYLVQKAKQRRALRRWEQELNAKRSHLGRITVENEVDLDGPPRAFVYINEYRVGEGITLNQVAVGCECQDCLWAPTGGCCPGASLHKFAYNDQGQVRLRAGLPIYECNSRCRCGYDCPNRVVQKGIRYDLCIFRTDDGRGWGVRTLEKIRKNSFVMEYVGEIITSEEAERRGQIYDRQGATYLFDLDYVEDVYTVDAAYYGNISHFVNHSCDPNLQVYNVFIDNLDERLPRIAFFATRTIRAGEELTFDYNMQVDPVDMESTRMDSNFGLAGLPGSPKKRVRIECKCGTESCRKYLF |

Reference: PMC3046540
